NEL and NOAEL data for one molecule are collected here from EPA's ToxRefDB 2.

The data set has as its system rat. The following applies: Prenatal developmental toxicity study; wistar; Oral; Feed; dose end: 15 GD; group: maternal; systemic / in life observation / body weight / body weight gain + systemic / in life observation / food consumption / food consumption.

On to `CC(C)(C)c1ccc(O)cc1` [4-tert-Butylphenol], for which the NEL was 2120 mg/kg/day and the NOAEL amounted to 2120 mg/kg/day.

What is called NOAEL is the highest dose or exposure tested at which no adverse effect was seen.
